# Results of single-concentration screens

Amino acid sequences for entries named in this document (tags omitted).
UniProt P9WFT3, whole entry: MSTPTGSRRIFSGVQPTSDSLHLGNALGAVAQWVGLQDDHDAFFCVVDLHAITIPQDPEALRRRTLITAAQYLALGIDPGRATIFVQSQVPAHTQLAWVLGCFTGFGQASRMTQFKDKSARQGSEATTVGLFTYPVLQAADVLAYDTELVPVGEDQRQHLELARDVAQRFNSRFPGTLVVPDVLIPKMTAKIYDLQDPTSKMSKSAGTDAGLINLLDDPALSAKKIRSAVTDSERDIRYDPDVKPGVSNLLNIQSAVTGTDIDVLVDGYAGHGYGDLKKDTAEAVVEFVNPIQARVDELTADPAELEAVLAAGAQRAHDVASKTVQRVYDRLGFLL

Data taken from ChEMBL document CHEMBL3988442, “University of Dundee, Small-Polar-MMV Screening Library” (2021).

Values are the deposited “Percent Effect”, in %.
How 0% and 100% were set is not recorded. Most values in the screen are low, and negative values occur.
This is an unselected part of the compounds tested.
Two or more numbers in one place are separate tests of the same structure; such repeats can differ widely.

Leishmania in macrophages: 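Cell assay of Leishmania donovani living inside macrophages; the read-out is not stated. Concentration: 30 µM. The record gives no direction; compounds that gave an IC50 in retests scored well above the rest, so higher reads as stronger inhibition. Of about 69,000 compounds tested this way, about 1,000 (1.5%) reached 50% or more in at least one test.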
MtTrpRS: 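Tryptophan-tRNA ligase, Mycobacterium tuberculosis (UniProt P9WFT3). Enzyme assay of tryptophanyl-tRNA synthetase; the read-out is not stated. Tested at 10 µM. Direction is not recorded; retested compounds ran higher, which suggests that high means inhibition. Size under these conditions: about 65,000 compounds, about 64 of them at 50% or above in at least one test.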
T. brucei: 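Whole-parasite assay of Trypanosoma brucei over 72 hours; the read-out is not stated. Compounds at 30 µM. Direction is inferred from retests: higher values go with stronger inhibition. Values scatter widely below zero; nearly all retest evidence comes from the higher of the two concentrations used. About 64,000 compounds were tested under these conditions; 1.5% (about 940) showed 50% or more at least once.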

{"smiles": "COc1cc(C)nc(N2CCN(C(=O)c3cc(Cl)c[nH]3)CC2)n1", "Leishmania in macrophages": 24.42, "MtTrpRS": -2.155, "T. brucei": -28.15}
{"smiles": "C[C@@H]1C[C@@H]2CCN(C(=O)c3cnccn3)C[C@H]2O1", "MtTrpRS": -1.313}
{"smiles": "COCCN1CCOCC12CCN(C(=O)c1c[nH]c3ccccc13)CC2", "Leishmania in macrophages": 10.51, "MtTrpRS": 0.07639, "T. brucei": 28.31}
{"smiles": "CCn1cc(-c2cncn2CCc2ccc3c(c2)OCCO3)cn1", "MtTrpRS": 14.31}
{"smiles": "CCN1c2ccc(-c3cncn3CCCn3ccnc3C)cc2CC1C.Cl", "stereo": "stereo not drawn", "Leishmania in macrophages": -30.06, "T. brucei": 7.904}
{"smiles": "CC[C@@H]1N(Cc2ccsc2)CCC[C@]12CCC(=O)N2CCOC", "MtTrpRS": 5.115}
{"smiles": "O=C1OCCN1CCc1nc(-c2cc3c4c(c2)CC(=O)N4CCC3)cs1", "Leishmania in macrophages": -13.23, "MtTrpRS": -4.396, "T. brucei": -13.17}
{"smiles": "Cc1ccc(CCNC(=O)Nc2cc(C(F)(F)F)c[nH]c2=O)o1", "Leishmania in macrophages": 27.3, "MtTrpRS": -3.096}
{"smiles": "CC(C)C(C(=O)N1CCC2(CC1)CN(C)C(=O)O2)c1ccccc1", "stereo": "stereo not drawn", "Leishmania in macrophages": 9.386, "MtTrpRS": -5.094, "T. brucei": 0.6292}
{"smiles": "[H][C@]12CC[C@]([H])(CN(C(=O)CCc3n[nH]c(C)c3C)C1)N(CCOC)C2", "Leishmania in macrophages": 2.834, "T. brucei": -15.62}
{"smiles": "O=C1NCC(c2ccc(F)cc2)Cc2[nH]c(CCN3CCCC3)nc21", "stereo": "stereo not drawn", "Leishmania in macrophages": 7.144, "MtTrpRS": -3.759, "T. brucei": -8.04}
{"smiles": "C[C@]1(O)CN(Cc2ncccc2F)CC[C@@H]1Oc1ccccc1", "Leishmania in macrophages": 0.9303, "MtTrpRS": -2.039, "T. brucei": -6.422}
{"smiles": "Cc1cccc(CN2CCO[C@H]3[C@H](Oc4ccccn4)CC[C@@H]32)n1", "MtTrpRS": 3.743}
{"smiles": "Cc1occc1C(=O)N1CCc2c(CNS(C)(=O)=O)cncc2C1.Cl", "Leishmania in macrophages": -0.9784, "T. brucei": -7.203}
{"smiles": "Cc1ccc(CN(CC(=O)NCC2CCOC2)c2ccc(F)cc2)o1", "stereo": "stereo not drawn", "Leishmania in macrophages": 7.503, "MtTrpRS": -4.545, "T. brucei": -7.751}
{"smiles": "CN(CCc1cn[nH]c1)C(=O)C1CC(=O)N(Cc2ccccn2)C1", "stereo": "stereo not drawn", "Leishmania in macrophages": 6.24, "MtTrpRS": -3.21, "T. brucei": -9.345}
{"smiles": "CCn1nc(CNC(C)(C)CO)c(-c2ccccc2)n1", "Leishmania in macrophages": -41.95, "MtTrpRS": 2.591, "T. brucei": -0.2028}
{"smiles": "CCS(=O)(=O)N1CCC2(CCC(N3CCCC3)c3ccccc32)CC1.O=C(O)C(F)(F)F", "stereo": "stereo not drawn", "Leishmania in macrophages": 7.901, "T. brucei": -13.64}
{"smiles": "O=c1ccc2c([nH]1)CCN(S(=O)(=O)c1ccc3c(c1)CCCC3)C2", "Leishmania in macrophages": "7.481 & 19.73", "MtTrpRS": -4.331, "T. brucei": -17.54}
{"smiles": "O=C(CCOCC(F)(F)F)N1CCCC(n2ccnc2)C1", "stereo": "stereo not drawn", "Leishmania in macrophages": 16.84, "MtTrpRS": -3.805}
{"smiles": "N#Cc1cnc(N2CCC3(CC2)OCCO3)nc1N", "Leishmania in macrophages": 39.63, "T. brucei": 2.421}
{"smiles": "CCC1(CC)C(=O)NC(=O)N/C1=N/c1cccc(OC)c1", "Leishmania in macrophages": -41.85, "MtTrpRS": -2.731, "T. brucei": -5.148}
{"smiles": "Cc1cnn(CC2CCCCN2C(=O)CC(F)(F)F)c1", "stereo": "stereo not drawn", "Leishmania in macrophages": 26.46, "MtTrpRS": -6.262, "T. brucei": -0.4613}
{"smiles": "O=C(O)c1cc(-n2cc3c(n2)CCC3)cc(S(=O)(=O)N2CCOCC2)c1", "Leishmania in macrophages": 14.8, "MtTrpRS": 6.979, "T. brucei": 22.08}
{"smiles": "O=C1N(Cc2ccc(F)c(F)c2)CCCC1(O)CNCc1ncc[nH]1", "stereo": "stereo not drawn", "Leishmania in macrophages": -10.31, "MtTrpRS": -0.8392, "T. brucei": 1.999}
{"smiles": "[H][C@]12CCCC(=O)N[C@@]1(C)CCCCN2C(=O)c1cccc(C)n1", "Leishmania in macrophages": "17.13 & 22.07", "T. brucei": 17.6}
{"smiles": "Fc1ccc(CN2CCOC[C@H](Oc3cccnc3)C2)cc1", "Leishmania in macrophages": 1.131, "MtTrpRS": 9.029, "T. brucei": -42.91}
{"smiles": "O=C(O)C1CN(c2cccc(Cl)c2)CCO1", "stereo": "stereo not drawn", "Leishmania in macrophages": 3.602, "MtTrpRS": 1.255, "T. brucei": -5.37}
{"smiles": "Cc1ccc(CCNC(=O)N2CCC(Cc3cnn(C)c3)C2)cn1", "stereo": "stereo not drawn", "Leishmania in macrophages": 3.108, "MtTrpRS": 1.527, "T. brucei": -7.691}
{"smiles": "CCc1cccc(OCCCN(C)C(=O)CN2CCNC2=O)c1", "Leishmania in macrophages": -1.466, "MtTrpRS": 4.218, "T. brucei": -96.07}
{"smiles": "CCC(O)CN1CCN(C(=O)c2ccn(-c3cccc(F)c3)n2)CC1", "stereo": "stereo not drawn", "Leishmania in macrophages": 9.13, "MtTrpRS": -1.016, "T. brucei": -18.91}